This data set concerns LARK. Kind of data set: EMSA. The note with it: K+, EMSA: 2 uM 5' 6-FAM probe annealed to form G4 (with K+), 2 ug LARK or 1 ug BG4, binding buffer, pH and temperature not given (ref 60), recombinant protein, label: 5' 6-FAM, folded or branched DNA. (Mobility shift assays separate free from complexed probe on a gel.)

The exact form of at least one protein or probe is not confirmed. Weaker means in comparison with the reference protein, sequence or condition of that experiment. At least one verdict was read from the data and is not stated in words by the source.

As to “CCAGTGCGGGGCGCGAGGGGGCCGAGGGGCGGGGCAACAA [POUM2-C35]”, the binding result (5mC at C35) is reported as “binds more weakly”. “CCAGTGCGGGGCGCGAGGGGGCCGAGGGGCGGGGCAACAA [POUM2-C7]”: the binding result (5mC at C7) is listed as “binds more weakly”. For the sequence “CCAGTGCGGGGCGCGAGGGGGCCGAGGGGCGGGGCAACAA [POUM2-C14]”, the binding result (5mC at C14) is listed as “binds more weakly”. “CCAGTGCGGGGCGCGAGGGGGCCGAGGGGCGGGGCAACAA [POUM2-WT]”: the binding result (cited from earlier work) was “binds”.

The record behind these values is PMC12255034.
